In patent publication US8445006B2, “Biomolecular coating for implants” (Georgia Tech Research Corporation, priority 2006, dated 2013):
Some of these results come from one statement about several compounds together.

Tested on: MC3T3-E1 cells
Assay: Centrifugation cell adhesion assay on ligand-tethered SAMs
Type: cell-based, murine
Conditions: maximum ligand density; normalized to unblocked controls
Protocol: MC3T3-E1 murine immature osteoblast-like cells (Riken Cell Bank, Hirosawa, Japan) were used because of their expression of multiple integrins, including alpha5beta1, alpha2beta1, and alphaVbeta3. Cells were maintained at 37° C. in α-MEM supplemented with 10% FBS and 1% penicillin-streptomycin and passaged every 2-3 days via standard culture techniques.
Self-assembled monolayers (SAMs) of alkanethiols on gold were used to present well-defined, ordered surfaces with anchoring groups within a non-fouling background. Tri(ethylene glycol)-terminated alkanethiol (HS—(CH2)11—(OCH2CH2)3—OH; EG3) and carboxylic acid-terminated alkanethiol (HS—(CH2)11—(OCH2CH2)6—OCH2COOH; EG6-COOH) were previously synthesized and characterized. Gold-coated substrates were prepared by sequential deposition of titanium (100 Å) and gold (200 Å) films via an electron beam evaporator (Thermionics Laboratories, Hayward, Calif., 2×10^−6 Torr, 1 A/s) onto clean 6-well plate lids or glass coverslips. […]
A modification of a centrifugation assay was used to apply controlled detachment forces to cells adhering to engineered surfaces. […] Before centrifugation, cell images were taken using a Nikon TE-300 fluorescence microscope and Spot RT digital camera. […] Post/pre-spin cell ratios were determined by image analysis, and this adhesive fraction was plotted against ligand surface density to obtain cell adhesion profiles.

Substance	reduction of adhesion by antibodies against β3 integrin subunit
GRGDG13PHSRN (GRGDGGGGGGGGGGGGGPHSRN) [RGD-PHSRN]	over 75%
GRGDSPC [RGD peptide, linear RGD oligopeptide purchased from BACHEM; primarily supports αvβ3-mediated adhesion, reference compound]	over 75%
